Results deposited as PubChem BioAssay AID1259300 (Sanger Institute, 2017).

Aim: 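siRNA screen of kinases and common colorectal cancer mutant genes, alone or with drugs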 (primary screen)
Cells: HCT15 colorectal cancer cells
Reagents: siRNA pool against human genes
Challenge: anchor drug or DMSO vehicle added 24 h after seeding: BYL719 1 µM, cetuximab 5 µg/ml, trametinib 10 nM; drug doses chosen to barely affect viability alone
Measurement: 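Cell viability after knock-down, as fraction of non-targeting pool wells averaged over replicates, plus robust z-score for knock-down alone; synergy score per drug (BYL719 1 µM, cetuximab 5 µg/ml, trametinib 10 nM)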
Direction: viability z-score, siRNA alone: higher = more viable cells after knock-down; viability vs non-targeting, siRNA alone: higher = more viable cells; synergy score with BYL719: higher = stronger synergy of knock-down with drug
Hit rule: 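Called active (essential) if viability z-score with knock-down alone falls below -3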
Calls: active = essential: knock-down alone lowers viability (z below -3); inactive = no strong viability loss with knock-down alone
Here is an unselected part of 794 reagents tested. In the full data, 18 (2.3%) are marked active. 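Calls rest on knock-down alone, not drug synergy; depositor treated synergy scores above 0.15 as synergistic; drug doses alone had little viability effect.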 No viability above 1 is reported: the scale is capped. Further read-outs or replicates are left out here. Not given: the amount of reagent, the time to read-out.

| Target gene | viability z-score, siRNA alone | viability vs non-targeting, siRNA alone | synergy score with BYL719 | outcome |
| --- | --- | --- | --- | --- |
| TAOK3 | 0.625 | 1 | 0.275 | inactive |
| RPS6KA3 | 0.625 | 1 | 0.233 | inactive |
| MAGI1 | 0.302 | 0.977 | 0.0446 | inactive |
| NME7 | -0.197 | 0.94 | 0.0137 | inactive |
| FGFR3 | -0.772 | 0.898 | 0.0251 | inactive |
| BMAL1 | -3.39 | 0.708 | 0.0692 | active |
| GRK6 | -2.15 | 0.798 | 0.032 | inactive |
| MAPK15 | 0.625 | 1 | -0.0684 | inactive |
| PCK2 | 0.0244 | 0.956 | 0.116 | inactive |
| TEK | 0.175 | 0.967 | 0.296 | inactive |
| SRMS | 0.625 | 1 | 0.285 | inactive |
| NUP107 | -4.36 | 0.637 | 0.0658 | active |
| EPHA5 | 0.625 | 1 | 0.109 | inactive |
| PRKACG | 0.625 | 1 | 0.0861 | inactive |
| KALRN | 0.625 | 1 | 0.0823 | inactive |
| TSKS | -0.287 | 0.934 | -0.139 | inactive |
| MYLK3 | 0.0279 | 0.957 | 0.0805 | inactive |
| MARK1 | -1.34 | 0.857 | -0.045 | inactive |
| ERN2 | 0.625 | 1 | 0.13 | inactive |
| CDK6 | 0.625 | 1 | 0.232 | inactive |
| CHUK | 0.625 | 1 | -0.0361 | inactive |
| TGFBR3 | 0.625 | 1 | 0.029 | inactive |
| DUSP21 | -0.971 | 0.884 | 0.109 | inactive |
| RBKS | 0.625 | 1 | 0.0601 | inactive |
| GATA3 | 0.172 | 0.967 | 0.0829 | inactive |
| MARK3 | 0.625 | 1 | 0.0776 | inactive |
| IRAK4 | 0.625 | 1 | 0.182 | inactive |
| PIM3 | 0.625 | 1 | 0.153 | inactive |
| AK3 | 0.625 | 1 | 0.205 | inactive |
| PRKAR1A | 0.625 | 1 | 0.1 | inactive |
| HIPK4 | 0.625 | 1 | 0.107 | inactive |
| PRKCA | 0.625 | 1 | -0.029 | inactive |
| PRKX | 0.625 | 1 | 0.0532 | inactive |
| MAPKAPK3 | -2.22 | 0.793 | 0.189 | inactive |
| NTRK3 | 0.625 | 1 | 0.0172 | inactive |
| PRKG2 | 0.0859 | 0.961 | 0.297 | inactive |
| UHMK1 | 0.625 | 1 | 0.0106 | inactive |
| DGKI | 0.389 | 0.983 | 0.049 | inactive |
| SRC | 0.625 | 1 | 0.231 | inactive |
| STYK1 | -0.283 | 0.934 | 0.168 | inactive |
| LYN | 0.625 | 1 | 0.221 | inactive |
| CALM1 | 0.291 | 0.976 | 0.0694 | inactive |
| RAF1 | -0.141 | 0.944 | 0.0737 | inactive |
| FLT4 | 0.625 | 1 | 0.104 | inactive |
| FGFR2 | 0.625 | 1 | 0.0514 | inactive |
| STK25 | -0.649 | 0.907 | 0.0966 | inactive |
| AK4 | 0.122 | 0.963 | 0.0494 | inactive |
| NRK | 0.625 | 1 | 0.112 | inactive |
| DLG2 | -0.185 | 0.941 | -0.00167 | inactive |
| PIK3CA | -0.987 | 0.883 | -0.0176 | inactive |
| STRADB | -2.57 | 0.768 | -0.0654 | inactive |
| AGK | -0.0948 | 0.948 | 0.13 | inactive |
| CKS1B | 0.625 | 1 | 0.123 | inactive |
| ULK1 | -0.036 | 0.952 | 0.0635 | inactive |
| VRK1 | -1.39 | 0.854 | 0.02 | inactive |
| CDK5R2 | 0.5 | 0.991 | 0.00326 | inactive |
| BRD4 | -2.05 | 0.805 | 0.169 | inactive |
| RIPK4 | 0.385 | 0.983 | -0.063 | inactive |
| EPHB3 | -1.27 | 0.862 | 0.0172 | inactive |
| MAP3K13 | 0.625 | 1 | 0.157 | inactive |
| PRPS1L1 | 0.401 | 0.984 | 0.181 | inactive |
| MYO3B | 0.625 | 1 | 0.274 | inactive |
| CDK20 | -0.824 | 0.895 | 0.177 | inactive |

Records listed above marked active, once more:
| Target gene | viability z-score, siRNA alone | viability vs non-targeting, siRNA alone | synergy score with BYL719 | outcome |
| --- | --- | --- | --- | --- |
| BMAL1 | -3.39 | 0.708 | 0.0692 | active |
| NUP107 | -4.36 | 0.637 | 0.0658 | active |
